Assay results as given in the supplement of paper PMC8728848.
The list shows a part of the results.

Columns and labels:
Assay in all cases: glycan array binding signal (z-score within array); higher = stronger binding
Details in all cases: glycan notation: IUPAC condensed, linker removed
[1] = target: Fuc(a1-2)Gal6S(b1-3)GlcNAc6S
In short: (§1)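 Glycan array data came from 3228 arrays in the Consortium for Functional Glycomics database, and only arrays with an available protein sequence were kept. Glycan names were put into IUPAC-condensed notation, and columns mapping to the same glycan were averaged. The binding signal is a within-array Z-score, averaged across arrays of one protein sequence run at different concentrations or buffers and across linkers. A negative Z-score can be read as non-binding.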

Fuc(a1-2)Gal6S(b1-4)Glc = target: Fuc(a1-2)Gal6S(b1-4)Glc
In short: as §1

[2] = target: Fuc(a1-2)Gal6S(b1-4)Glc6S
In short: as §1

Fuc(a1-2)[Gal(a1-3)]Gal = target: Fuc(a1-2)[Gal(a1-3)]Gal
In short: as §1

[3] = target: Fuc(a1-2)[Gal(a1-3)]Gal(b1-3)GalNAc
In short: as §1

[4] = target: Fuc(a1-2)[Gal(a1-3)]Gal(b1-3)GalNAc(b1-3)Gal(a1-4)Gal(b1-4)Glc
In short: as §1

[5] = target: Fuc(a1-2)[Gal(a1-3)]Gal(b1-3)GlcNAc
In short: as §1

[6] = target: Fuc(a1-2)[Gal(a1-3)]Gal(b1-3)GlcNAc(b1-2)Man(a1-3)[Fuc(a1-2)[Gal(a1-3)]Gal(b1-3)GlcNAc(b1-2)Man(a1-6)]Man(b1-4)GlcNAc(b1-4)GlcNAc
In short: as §1

[7] = target: Fuc(a1-2)[Gal(a1-3)]Gal(b1-3)GlcNAc(b1-2)Man(a1-3)[Fuc(a1-2)[Gal(a1-3)]Gal(b1-3)GlcNAc(b1-2)Man(a1-6)]Man(b1-4)GlcNAc(b1-4)[Fuc(a1-6)]GlcNAc
In short: as §1

[8] = target: Fuc(a1-2)[Gal(a1-3)]Gal(b1-3)GlcNAc(b1-3)GalNAc
In short: as §1

[9] = target: Fuc(a1-2)[Gal(a1-3)]Gal(b1-3)GlcNAc(b1-6)GalNAc
In short: as §1

[10] = target: Fuc(a1-2)[Gal(a1-3)]Gal(b1-4)Glc
In short: as §1

[11] = target: Fuc(a1-2)[Gal(a1-3)]Gal(b1-4)GlcNAc
In short: as §1

[12] = target: Fuc(a1-2)[Gal(a1-3)]Gal(b1-4)GlcNAc(b1-2)Man
In short: as §1

[13] = target: Fuc(a1-2)[Gal(a1-3)]Gal(b1-4)GlcNAc(b1-2)Man(a1-3)[Fuc(a1-2)[Gal(a1-3)]Gal(b1-4)GlcNAc(b1-2)Man(a1-6)]Man(b1-4)GlcNAc(b1-4)GlcNAc
In short: as §1

[14] = target: Fuc(a1-2)[Gal(a1-3)]Gal(b1-4)GlcNAc(b1-2)Man(a1-3)[Fuc(a1-2)[Gal(a1-3)]Gal(b1-4)GlcNAc(b1-2)Man(a1-6)]Man(b1-4)GlcNAc(b1-4)[Fuc(a1-6)]GlcNAc
In short: as §1

[15] = target: Fuc(a1-2)[Gal(a1-3)]Gal(b1-4)GlcNAc(b1-3)GalNAc
In short: as §1

[16] = target: Fuc(a1-2)[Gal(a1-3)]Gal(b1-4)GlcNAc(b1-3)[Fuc(a1-2)[Gal(a1-3)]Gal(b1-4)GlcNAc(b1-6)]GalNAc
In short: as §1

[17] = target: Fuc(a1-2)[Gal(a1-3)]Gal(b1-4)GlcNAc(b1-6)GalNAc
In short: as §1

[18] = target: Fuc(a1-2)[Gal(a1-3)]Gal(b1-4)[Fuc(a1-3)]Glc
In short: as §1

[19] = target: Fuc(a1-2)[Gal(a1-3)]Gal(b1-4)[Fuc(a1-3)]GlcNAc
In short: as §1

[20] = target: Fuc(a1-2)[Gal(a1-3)]Gal(b1-4)[Fuc(a1-3)]GlcNAc(b1-3)GalNAc
In short: as §1

[21] = target: Fuc(a1-2)[Gal(a1-4)]Gal(b1-4)GlcNAc
In short: as §1

[22] = target: Fuc(a1-2)[GalNAc(a1-3)]Gal
In short: as §1

[23] = target: Fuc(a1-2)[GalNAc(a1-3)]Gal(b1-3)GalNAc(a1-3)[Fuc(a1-2)]Gal(b1-4)GlcNAc
In short: as §1

[24] = target: Fuc(a1-2)[GalNAc(a1-3)]Gal(b1-3)GalNAc(b1-3)Gal(a1-4)Gal(b1-4)Glc
In short: as §1

[25] = target: Fuc(a1-2)[GalNAc(a1-3)]Gal(b1-3)GlcNAc
In short: as §1

[26] = target: Fuc(a1-2)[GalNAc(a1-3)]Gal(b1-3)GlcNAc(b1-2)Man(a1-3)[Fuc(a1-2)[GalNAc(a1-3)]Gal(b1-3)GlcNAc(b1-2)Man(a1-6)]Man(b1-4)GlcNAc(b1-4)GlcNAc
In short: as §1

[27] = target: Fuc(a1-2)[GalNAc(a1-3)]Gal(b1-3)GlcNAc(b1-2)Man(a1-3)[Fuc(a1-2)[GalNAc(a1-3)]Gal(b1-3)GlcNAc(b1-2)Man(a1-6)]Man(b1-4)GlcNAc(b1-4)[Fuc(a1-6)]GlcNAc
In short: as §1

[28] = target: Fuc(a1-2)[GalNAc(a1-3)]Gal(b1-3)GlcNAc(b1-3)GalNAc
In short: as §1

[29] = target: Fuc(a1-2)[GalNAc(a1-3)]Gal(b1-3)GlcNAc(b1-6)GalNAc
In short: as §1

[30] = target: Fuc(a1-2)[GalNAc(a1-3)]Gal(b1-4)Glc
In short: as §1

[31] = target: Fuc(a1-2)[GalNAc(a1-3)]Gal(b1-4)GlcNAc
In short: as §1

[32] = target: Fuc(a1-2)[GalNAc(a1-3)]Gal(b1-4)GlcNAc(b1-2)Man
In short: as §1

[33] = target: Fuc(a1-2)[GalNAc(a1-3)]Gal(b1-4)GlcNAc(b1-2)Man(a1-3)[Fuc(a1-2)[GalNAc(a1-3)]Gal(b1-4)GlcNAc(b1-2)Man(a1-6)]Man(b1-4)GlcNAc(b1-4)GlcNAc
In short: as §1

[34] = target: Fuc(a1-2)[GalNAc(a1-3)]Gal(b1-4)GlcNAc(b1-2)Man(a1-3)[Fuc(a1-2)[GalNAc(a1-3)]Gal(b1-4)GlcNAc(b1-2)Man(a1-6)]Man(b1-4)GlcNAc(b1-4)[Fuc(a1-6)]GlcNAc
In short: as §1

[35] = target: Fuc(a1-2)[GalNAc(a1-3)]Gal(b1-4)GlcNAc(b1-3)Gal(b1-4)GlcNAc
In short: as §1

[36] = target: Fuc(a1-2)[GalNAc(a1-3)]Gal(b1-4)GlcNAc(b1-3)Gal(b1-4)GlcNAc(b1-3)Gal(b1-4)GlcNAc
In short: as §1

[37] = target: Fuc(a1-2)[GalNAc(a1-3)]Gal(b1-4)GlcNAc(b1-3)GalNAc
In short: as §1

[38] = target: Fuc(a1-2)[GalNAc(a1-3)]Gal(b1-4)GlcNAc(b1-3)[Fuc(a1-2)[GalNAc(a1-3)]Gal(b1-4)GlcNAc(b1-6)]GalNAc
In short: as §1

[39] = target: Fuc(a1-2)[GalNAc(a1-3)]Gal(b1-4)GlcNAc(b1-6)GalNAc
In short: as §1

[40] = target: Fuc(a1-2)[GalNAc(a1-3)]Gal(b1-4)[Fuc(a1-3)]GlcNAc
In short: as §1

[41] = target: Fuc(a1-2)[GalNAc(a1-3)]Gal(b1-4)[Fuc(a1-3)]GlcNAc(b1-3)GalNAc
In short: as §1

[42] = target: Fuc(a1-2)[GalNAc(a1-4)]Gal(b1-4)GlcNAc
In short: as §1

[43] = target: Fuc(a1-2)[GalNAc(b1-3)]Gal
In short: as §1

B1: EULS2 M1 (Oryza sativa) (protein)
chain: MVYCRANPNYAMTARNGAVVLAPANPKDEYQHWIKDMRWSTSIKDEEGYPAFALVNKATGQAIKHSLGQSHPVRLVPYNPEVMDESVLWTESRDVGNGFRCIRMVNNIYLNFDAFHGDKYHGGVRDGTDIVLWKLCEGDNQRWKIQPYYILEQKLISEEDLNSAVDHHHHHH
With B1 as the binder, how does the “glycan array binding signal (z-score)” value [1] read?
The value was 1.54.

What about the “glycan array binding signal (z-score)” value (Fuc(a1-2)Gal6S(b1-4)Glc) of the same binder?
Its value is -1.48.

What about the “glycan array binding signal (z-score)” value [2] of the same binder?
The value was 0.933.

And the “glycan array binding signal (z-score)” value (Fuc(a1-2)[Gal(a1-3)]Gal)?
Its value is 0.241.

What about the “glycan array binding signal (z-score)” value [3] of the same binder?
Its value is -0.061.

What about the “glycan array binding signal (z-score)” value [4] of the same binder?
The value was -0.582.

And the “glycan array binding signal (z-score)” value [5]?
The value was 0.694.

What about the “glycan array binding signal (z-score)” value [6] of the same binder?
Its value is -0.005.

What about the “glycan array binding signal (z-score)” value [7] of the same binder?
Its value is -0.318.

What about the “glycan array binding signal (z-score)” value [8] of the same binder?
Its value is -0.239.

What about the “glycan array binding signal (z-score)” value [9] of the same binder?
The value was -0.427.

What about the “glycan array binding signal (z-score)” value [10] of the same binder?
Its value is -0.289.

What about the “glycan array binding signal (z-score)” value [11] of the same binder?
The value was -0.349.

What about the “glycan array binding signal (z-score)” value [12] of the same binder?
The value was -0.549.

What about the “glycan array binding signal (z-score)” value [13] of the same binder?
The value was 0.991.

And the “glycan array binding signal (z-score)” value [14]?
The value was -0.508.

And the “glycan array binding signal (z-score)” value [15]?
The value was -0.594.

What about the “glycan array binding signal (z-score)” value [16] of the same binder?
The value was 0.307.

What about the “glycan array binding signal (z-score)” value [17] of the same binder?
The value was -1.1.

What about the “glycan array binding signal (z-score)” value [18] of the same binder?
Its value is 0.116.

And the “glycan array binding signal (z-score)” value [19]?
Its value is -0.591.

What about the “glycan array binding signal (z-score)” value [20] of the same binder?
Its value is -0.45.

What about the “glycan array binding signal (z-score)” value [21] of the same binder?
The value was -0.241.

And the “glycan array binding signal (z-score)” value [22]?
The value was -0.016.

What about the “glycan array binding signal (z-score)” value [23] of the same binder?
Its value is -0.326.

What about the “glycan array binding signal (z-score)” value [24] of the same binder?
The value was -0.009.

And the “glycan array binding signal (z-score)” value [25]?
The value was -0.207.

What about the “glycan array binding signal (z-score)” value [26] of the same binder?
Its value is 3.99.

What about the “glycan array binding signal (z-score)” value [27] of the same binder?
Its value is -0.184.

And the “glycan array binding signal (z-score)” value [28]?
The value was -0.886.

And the “glycan array binding signal (z-score)” value [29]?
The value was 0.727.

What about the “glycan array binding signal (z-score)” value [30] of the same binder?
Its value is 1.69.

What about the “glycan array binding signal (z-score)” value [31] of the same binder?
Its value is -0.05.

And the “glycan array binding signal (z-score)” value [32]?
The value was -1.

What about the “glycan array binding signal (z-score)” value [33] of the same binder?
The value was -0.654.

And the “glycan array binding signal (z-score)” value [34]?
The value was 1.96.

What about the “glycan array binding signal (z-score)” value [35] of the same binder?
The value was -0.473.

And the “glycan array binding signal (z-score)” value [36]?
The value was -1.42.

What about the “glycan array binding signal (z-score)” value [37] of the same binder?
The value was -0.543.

What about the “glycan array binding signal (z-score)” value [38] of the same binder?
Its value is -0.925.

And the “glycan array binding signal (z-score)” value [39]?
The value was -0.79.

And the “glycan array binding signal (z-score)” value [40]?
Its value is 0.407.

What about the “glycan array binding signal (z-score)” value [41] of the same binder?
The value was -1.61.

And the “glycan array binding signal (z-score)” value [42]?
Its value is -0.015.

What about the “glycan array binding signal (z-score)” value [43] of the same binder?
Its value is -0.425.
